Sequences of proteins named here, by UniProt entry; tags and fusion partners are left off.
UniProt P25490: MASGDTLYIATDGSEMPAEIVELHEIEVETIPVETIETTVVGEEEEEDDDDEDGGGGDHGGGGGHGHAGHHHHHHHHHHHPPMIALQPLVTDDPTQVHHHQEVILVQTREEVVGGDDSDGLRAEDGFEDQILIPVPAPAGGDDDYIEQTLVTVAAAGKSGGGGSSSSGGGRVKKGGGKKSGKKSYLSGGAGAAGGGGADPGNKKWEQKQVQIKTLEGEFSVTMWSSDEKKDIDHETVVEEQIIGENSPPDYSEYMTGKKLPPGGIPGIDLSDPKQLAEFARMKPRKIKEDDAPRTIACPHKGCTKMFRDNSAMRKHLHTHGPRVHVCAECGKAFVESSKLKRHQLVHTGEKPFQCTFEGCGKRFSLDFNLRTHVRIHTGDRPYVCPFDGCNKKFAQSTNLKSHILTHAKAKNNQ

According to PMC12034760, “FBL promotes hepatocellular carcinoma tumorigenesis and progression by recruiting YY1 to enhance CAD gene expression” (Cell Death & Disease, 2025):

Molecular target: T1, fibrillarin (FBL), bait of the pull-down assays (UniProt P22087)
T1 sequence: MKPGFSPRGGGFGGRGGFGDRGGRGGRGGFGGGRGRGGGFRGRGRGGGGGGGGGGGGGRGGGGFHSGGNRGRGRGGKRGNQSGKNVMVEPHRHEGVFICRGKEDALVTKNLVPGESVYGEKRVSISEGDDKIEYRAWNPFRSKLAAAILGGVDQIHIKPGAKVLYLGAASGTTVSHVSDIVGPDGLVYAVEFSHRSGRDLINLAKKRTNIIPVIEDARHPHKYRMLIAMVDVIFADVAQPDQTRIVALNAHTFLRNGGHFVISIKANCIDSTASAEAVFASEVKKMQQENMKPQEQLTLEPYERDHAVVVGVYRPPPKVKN
Assay: affinity purification with mass spectrometry; FBL pull-down assay followed by mass spectrometry; 13 potential interacting proteins; bait construct and sample not told

binding: binds
Substance: YY1 (transcriptional repressor protein YY1), found by mass spectrometry in the FBL pull-down (from UniProt P25490 1-414)

These are yes or no findings as the source states them, for the method shown. In cells and extracts the contact can be indirect. A yes stands for co-enrichment or nearness to the bait. Other partners may have been found.
